The list shows a part of the results. The main result of the screen is listed elsewhere. These columns were measured beside it and carry no call. The list favours compounds with an active or inconclusive main result. Potencies come from curve fits of mixed quality, noted in brackets.
Assay: qHTS Assay for Lipid Storage Modulators in Drosophila S3 Cells;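 on cell number change: cells counted by Cell Tracker Red CMTPX staining in the red channel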
Settings: BODIPY lipid droplet fluorescence, 18-24 h; for cell number change: measured here: cell count max response, cells fed with added oleic acid
How it was run: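 Drosophila S3 cells loaded with oleic acid (400 uM, as added) and compounds at several concentrations; lipid droplets imaged by 488-nm laser-scanning cytometry, 500–530 nm intensity and object ratio to cell channel. Percent activity normalized to 20 uM Triacsin C.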

[1] = measured here: lipid fluorescence (Fed channel) AC50, cells fed with added oleic acid
[2] = measured here: cell number channel AC50, cells fed with added oleic acid

Compound | cell number change | AC50 [1] | AC50 [2]
O=C(NCC(=O)N1CCCCC1)c1ccc(Br)o1 | 9.19% | 0.13 µM [falling, full curve, poor fit] | 
Cc1c(CCC(=O)N2CCC[C@H]2C(=O)O)c(=O)oc2c(C)c3oc4c(c3cc12)CCCC4 | 30.4% |  | 29.1 µM [rising, single point]
CCOC(=O)[C@H]1[C@H]2COc3ccc(C)cc3[C@@H]2N2C(=O)CN(CC3CCCO3)C(=O)[C@@]12C (some centres undefined) | -21.9% | 0.103 µM [falling, full curve, poor fit] | 
O=C(CC1SC2=NCCN2C1=O)Nc1ccccc1 (centres undefined) | 42% |  | 23.1 µM [rising, single point]
CCc1cc(=O)oc2cc(OCC(=O)N3CCC(C(N)=O)CC3)ccc12 | 4.21% | 2.31 µM [rising, partial curve] | 
COc1ccc(-c2ccc(=O)n(CC(=O)NCc3ccco3)n2)cc1 | 12.4% | 18.4 µM [rising, partial curve] | 
CCN1C(=O)C2C(c3cccc(F)c3)NC(C)(C(=O)OC)C2C1=O (centres undefined) | 0.166% | 29.1 µM [falling, partial curve] | 
COCCCn1c(C(=O)NCCC2=CCCCC2)cc2c(=O)n3ccccc3nc21 | 8.02% | 5.8 µM [falling, single point] | 
Cc1cnc(C)c(N2CCC(C(=O)NCc3ccco3)CC2)n1 | -7.48% |  | 7.31 µM [rising, single point]
CCn1c(=O)c2sccc2n(Cc2cc(C(=O)OC)ccc2OC)c1=O | 6.42% |  | 
O=C(c1ccc(OC2CCN(Cc3cccc(F)c3)CC2)cc1)N1CCCCC1 | -1.76% | 16.4 µM [rising, partial curve] | 
O=C(C1CCC(CNS(=O)(=O)c2cccs2)CC1)N1CCN(c2ccc(F)cc2)CC1 (centres undefined) | -44.4% |  | 5.8 µM [falling, partial curve, poor fit]
Cc1occc1-c1nnc(SCC(=O)Nc2ccc3c(c2)OCO3)n1CC1CCCO1 (centres undefined) | -16.7% |  | 0.651 µM [falling, full curve, poor fit]
COC(=O)c1cc(C(=O)Nc2ccc(S(=O)(=O)NC(C)(C)C)cc2)cc([N+](=O)[O-])c1 | -3.1% | 0.291 µM [falling, full curve, poor fit] | 
COc1ccc(C(=O)NC(=S)Nc2nnn(C)n2)cc1 | -9.79% | 0.0651 µM [falling, full curve, poor fit] | 
O=C(Cc1ccc([N+](=O)[O-])cc1)NNC(=O)c1ccc2c(c1)OCO2 | 14.7% | 0.58 µM [rising, single point] | 
CCC1(C)SC(NC(C)=O)=NN1C(C)=O (centres undefined) | -7.85% |  | 
CCN(CC(=O)Nc1c(F)cccc1F)C(=O)c1cnccn1 | 7.14% | 2.59 µM [rising, partial curve] | 
COC(=O)C1=COC(C)C2CN3CCc4c([nH]c5cc(OC)c(OC)cc45)C3CC12 (centres undefined) | -10.8% | 23.1 µM [falling, single point] | 
CCCCn1c(N)c(Sc2ccc(Cl)cc2)c(=O)[nH]c1=O | 9.62% | 6.51 µM [falling, single point] | 
Cc1cc(C(=O)OCC(=O)Nc2cccc(S(=O)(=O)N3CCOCC3)c2)c(C)o1 | 16.6% | 2.06 µM [rising, partial curve] | 

Compound | cell number change | AC50 [1] | AC50 [2]
CN1CCN(CC#CCC2(O)c3ccccc3-c3ccccc32)CC1 | 27.7% | 0.651 µM [rising, full curve, poor fit] | 
COc1ccc(N(Cc2cc3cccc(C)c3[nH]c2=O)S(=O)(=O)c2ccc(OC)cc2)cc1 | -1.53% |  | 
Cc1ccc2nc(Cl)c(/C=N/NC(=O)c3ccccc3O)cc2c1 | 17.7% | 23.1 µM [rising, single point] | 
O=C(Nc1c2c(nn1-c1ccc(F)cc1)CS(=O)C2)C12CC3CC(CC(C3)C1)C2 (centres undefined) | 30.2% |  | 20.6 µM [rising, single point]
Cn1c(N)c(C(=O)CN2CCc3ccccc3C2)c(=O)n(C)c1=O | 14.8% |  | 
COCCn1c(SCC(=O)NC2CCCC2)nc2c(c1=O)SCC2 | 16.1% | 6.51 µM [rising, single point] | 
CC1c2cccn2CCN1S(=O)(=O)c1ccc(F)cc1 (centres undefined) | -16.9% | 16.4 µM [falling, single point] | 
Cc1cc(/C=N/NC(N)=S)c(C)n1-c1ccc(Cl)c(Cl)c1 | -33.4% | 29.1 µM [falling, single point] | 29.1 µM [falling, single point]
O=C(Nc1nnc(-c2ccc(F)cc2)s1)c1ccco1 | -4.76% |  | 
COc1c(C(C)C)oc2cc3oc(=O)ccc3cc12 | -6.15% |  | 
O=C(N/N=C\c1cccc(OC(=O)c2ccco2)c1)c1ccc2c(c1)OCO2 |  | 1.16 µM [rising, full curve] | 
Cc1c(C(=O)Nc2cccc([N+](=O)[O-])c2)cnn1-c1ccccc1 | -8.78% |  | 
COc1ccccc1NC(=O)COC(=O)c1c[nH]c(=O)[nH]c1=O | -12.1% | 32.6 µM [falling, single point] | 
Cc1ccc(C2C3=C(CC(C)(C)CC3=O)N(CCN3CCOCC3)C3=C2C(=O)CC(C)(C)C3)cc1 | 27.3% | 16.4 µM [rising, partial curve] | 
N#Cc1ccc(OCC(O)CS(=O)(=O)c2ccc(F)cc2)cc1 (centres undefined) | -2.94% |  | 0.058 µM [rising, full curve, poor fit]
CC(C)(C)C1C/C(=C/c2ccccn2)C(=O)/C(=C/c2ccccn2)C1 (centres undefined) | -51.5% | 18.4 µM [falling, single point] | 23.1 µM [falling, single point]
Clc1cccc(Cl)c1CON/C=N/c1ncnc2sccc12 |  | 1.64 µM [rising, partial curve] | 2.06 µM [rising, partial curve]
COc1ccc(OCC(=O)Nc2cccc(C(C)=O)c2)cc1 | 43.7% | 32.6 µM [rising, partial curve, poor fit] | 
O=C(NCc1ccccc1CN1CCCC1)c1cc2cc(Cl)ccc2o1 | 5.57% | 0.651 µM [falling, single point] | 
O=C(CCCOc1ccccc1)Nc1cccc(S(=O)(=O)N2CCCCC2)c1 | 17% | 4.61 µM [falling, partial curve] | 
CCCC(=O)N1CCN(c2ccc(NC(=S)NC(=O)c3cccc(C)c3)cc2)CC1 | -23.4% | 1.16 µM [falling, full curve] | 0.0058 µM [falling, full curve, poor fit]

Compound | cell number change | AC50 [1] | AC50 [2]
COc1ccc(CSc2nncn2C)cc1F | -25.2% | 0.0291 µM [falling, full curve, poor fit] | 0.013 µM [falling, full curve, poor fit]
O=C(C[C@H]1C(=O)N(CCc2ccccc2)C[C@@H]1Cc1ccccc1)Nc1ccccc1 | 8.08% |  | 
COc1ccc(/C=C/C(=O)Nc2ccc3c(c2)OCCO3)cc1OC | 84.4% | 0.326 µM [rising, full curve, poor fit] | 29.1 µM [rising, single point]
CCN(CC)C(=O)NC(c1ccc(C)c(F)c1)C(Cl)(Cl)Cl (centres undefined) | -28.5% | 1.3 µM [rising, partial curve] | 
CSc1cc(C)c(OCC(=O)Nc2ccc(NC(C)=O)cc2)c(C)c1 | 9.96% |  | 
S=C1NC(c2cccs2)=CC(c2ccc(Br)cc2)N1 (centres undefined) | 18.8% | 29.1 µM [rising, single point] | 
O=C(CSc1nnc(Nc2ccccc2F)s1)Nc1cccc(S(=O)(=O)N2CCCCC2)c1 | -35.4% | 18.4 µM [falling, partial curve] | 32.6 µM [falling, single point]
CCOc1ccc(S(=O)(=O)NCc2cccnc2)cc1NC(=O)c1ccccc1F | 98.7% |  | 29.1 µM [rising, single point]
N/C(COc1ccccc1)=N\NS(=O)(=O)c1ccccc1 |  | 0.116 µM [falling, full curve, poor fit] | 
COc1ccccc1-n1c(C)c(C(C)=O)c2cc(O)ccc21 | 12% | 6.51 µM [rising, single point] | 0.103 µM [rising, full curve, poor fit]
CCCCCC(=O)Nc1cccc(-c2nc3ncccc3o2)c1 | 1.04% |  | 
CSc1ccc(C(=O)C2CCCN(C(=O)CCn3cncn3)C2)cc1 (centres undefined) | 0.99% |  | 0.461 µM [rising, single point]
CSCCC(NC(=O)COc1ccccc1)C(=O)N(C)Cc1cccc(F)c1 (centres undefined) | 36.4% | 32.6 µM [rising, single point] | 29.1 µM [rising, single point]
CCc1ccc(NC(=S)N2CCCCCCC2)cc1 | -7.45% |  | 
Cc1noc(C)c1C(=O)N1CCc2ccccc21 | -2.84% | 0.651 µM [falling, single point] | 
O=C(NNc1c(Cl)cc(Cl)cc1Cl)C1CCC1 | 4.94% | 29.1 µM [rising, single point] | 
COc1ccc(N2C(=O)NC3CC2(C)Oc2ccc(Cl)cc23)cc1OC (centres undefined) | -20% | 0.0058 µM [falling, full curve, poor fit] | 
CN=C(NC1CCCCC1)c1ccc([N+](=O)[O-])cc1 | 3.41% | 10.3 µM [rising, partial curve] | 
CC(=O)Nc1ccc(NC(=S)Nc2ccc(F)cc2)cc1 | 40.2% |  | 
CCN(CC)S(=O)(=O)c1ccc(/C=C/C(=O)NC2CCCCC2)cc1 | 12.6% |  | 
CC1CN(C(=O)CCNS(=O)(=O)c2ccc(Br)cc2)CC(C)O1 (centres undefined) | -3.95% | 29.1 µM [rising, partial curve] | 

Compounds above containing a nitro group on carbon (four):
Compound | cell number change | AC50 [1] | AC50 [2]
COC(=O)c1cc(C(=O)Nc2ccc(S(=O)(=O)NC(C)(C)C)cc2)cc([N+](=O)[O-])c1 | -3.1% | 0.291 µM [falling, full curve, poor fit] | 
O=C(Cc1ccc([N+](=O)[O-])cc1)NNC(=O)c1ccc2c(c1)OCO2 | 14.7% | 0.58 µM [rising, single point] | 
Cc1c(C(=O)Nc2cccc([N+](=O)[O-])c2)cnn1-c1ccccc1 | -8.78% |  | 
CN=C(NC1CCCCC1)c1ccc([N+](=O)[O-])cc1 | 3.41% | 10.3 µM [rising, partial curve] | 

Source: PubChem BioAssay AID2685 (National Center for Advancing Translational Sciences (NCATS), 2010)
